# From the supplement of paper PMC8728848
# The list shows a part of the results.
# B1: PX15642A-pgi-501-20-501 (Parabacteroides gingivalis) (protein)
# chain: CELDRDPEGKDFQQPYTSFVQTKQNRDGLYALLRNTENPRMHFYQELQSDMYCTTITDGNSLAPFVNWDLGILNDHGRADEDEVSGIAGYYFVYNRLNQQANAFVNNTEAALQNQVYKNSTEIANAKSFLAEGKVLQALAIWRLMDRFSFHESVTEVNSGAKDLGVILLKEYNPGYIGPRATKAQCYDYILSRLSEAIEVLPENRESVLYVSRDYAYALRARIYLALGEYGKAAADAKMVVDKYPLIGAADASEFENIYRSDANNPEIIFRGFASATLGSFTATTLNGAAPAGKDIKYNPSAVPFQWVVDLYENEDFRKSVYIAKVVKKDKGYLVNKFLEDKAYRDVQDKPNLKVGARYFSVAEVYLILVESALQTGDTPTAEKYLKALSKARGAEVSVVNMEALQAERTRELIGEGSRLRDMVRWSIPNNHDAFETQPGLEGFANTTPLKAQAPVGFYAYTWEFPQRDRQTNPQLIKNWPI
# Key:
# Assay in all cases: glycan array binding signal (z-score within array); higher = stronger binding
# Details in all cases: glycan notation: IUPAC condensed, linker removed
# [1] = biological target: GlcNAc(b1-3)Gal(b1-4)GlcNAc(b1-3)Gal(b1-4)GlcNAc(b1-2)Man(a1-3)[GlcNAc(b1-3)Gal(b1-4)GlcNAc(b1-3)Gal(b1-4)GlcNAc(b1-2)Man(a1-6)]Man(b1-4)GlcNAc(b1-4)[Fuc(a1-6)]GlcNAc
# Procedure, shortened: (§1)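 Negative Z-scores can be read as non-binding. The Z-score is calculated within each array and then averaged across arrays of one protein sequence at different concentrations or buffers and across linkers. Arrays, 3228 in all, were curated from the Consortium for Functional Glycomics database and kept only where the protein sequence was available.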
# [2] = biological target: GlcNAc(b1-3)Gal(b1-4)GlcNAc(b1-3)Gal(b1-4)GlcNAc(b1-2)[GlcNAc(b1-3)Gal(b1-4)GlcNAc(b1-3)Gal(b1-4)GlcNAc(b1-6)]Man(a1-6)[GlcNAc(b1-3)Gal(b1-4)GlcNAc(b1-3)Gal(b1-4)GlcNAc(b1-2)Man(a1-3)]Man(b1-4)GlcNAc(b1-4)[Fuc(a1-6)]GlcNAc
# Procedure, shortened: as §1
# [3] = biological target: GlcNAc(b1-3)Gal(b1-4)GlcNAc(b1-3)Gal(b1-4)GlcNAc(b1-3)Gal(b1-4)GlcNAc(b1-2)Man(a1-3)[GlcNAc(b1-3)Gal(b1-4)GlcNAc(b1-3)Gal(b1-4)GlcNAc(b1-3)Gal(b1-4)GlcNAc(b1-2)Man(a1-6)]Man(b1-4)GlcNAc(b1-4)GlcNAc
# Procedure, shortened: as §1
# [4] = biological target: GlcNAc(b1-3)Gal(b1-4)GlcNAc(b1-3)Gal(b1-4)GlcNAc(b1-3)Gal(b1-4)GlcNAc(b1-2)Man(a1-3)[GlcNAc(b1-3)Gal(b1-4)GlcNAc(b1-3)Gal(b1-4)GlcNAc(b1-3)Gal(b1-4)GlcNAc(b1-2)Man(a1-6)]Man(b1-4)GlcNAc(b1-4)[Fuc(a1-6)]GlcNAc
# Procedure, shortened: as §1
# [5] = biological target: GlcNAc(b1-3)Gal(b1-4)GlcNAc(b1-3)Gal(b1-4)GlcNAc(b1-3)Gal(b1-4)GlcNAc(b1-2)[GlcNAc(b1-3)Gal(b1-4)GlcNAc(b1-3)Gal(b1-4)GlcNAc(b1-3)Gal(b1-4)GlcNAc(b1-6)]Man(a1-6)[GlcNAc(b1-3)Gal(b1-4)GlcNAc(b1-3)Gal(b1-4)GlcNAc(b1-3)Gal(b1-4)GlcNAc(b1-2)Man(a1-3)]Man(b1-4)GlcNAc(b1-4)[Fuc(a1-6)]GlcNAc
# Procedure, shortened: as §1
# [6] = biological target: GlcNAc(b1-3)Gal(b1-4)GlcNAc(b1-3)Gal(b1-4)GlcNAc(b1-3)Gal(b1-4)GlcNAc(b1-3)Gal(b1-4)GlcNAc(b1-2)Man(a1-3)[GlcNAc(b1-3)Gal(b1-4)GlcNAc(b1-3)Gal(b1-4)GlcNAc(b1-3)Gal(b1-4)GlcNAc(b1-3)Gal(b1-4)GlcNAc(b1-2)Man(a1-6)]Man(b1-4)GlcNAc(b1-4)GlcNAc
# Procedure, shortened: as §1
# [7] = biological target: GlcNAc(b1-3)Gal(b1-4)GlcNAc(b1-3)Gal(b1-4)GlcNAc(b1-3)Gal(b1-4)GlcNAc(b1-3)Gal(b1-4)GlcNAc(b1-2)Man(a1-3)[GlcNAc(b1-3)Gal(b1-4)GlcNAc(b1-3)Gal(b1-4)GlcNAc(b1-3)Gal(b1-4)GlcNAc(b1-3)Gal(b1-4)GlcNAc(b1-2)Man(a1-6)]Man(b1-4)GlcNAc(b1-4)[Fuc(a1-6)]GlcNAc
# Procedure, shortened: as §1
# [8] = biological target: GlcNAc(b1-3)Gal(b1-4)GlcNAc(b1-3)Gal(b1-4)GlcNAc(b1-3)Gal(b1-4)GlcNAc(b1-3)Gal(b1-4)GlcNAc(b1-2)[GlcNAc(b1-3)Gal(b1-4)GlcNAc(b1-3)Gal(b1-4)GlcNAc(b1-3)Gal(b1-4)GlcNAc(b1-3)Gal(b1-4)GlcNAc(b1-6)]Man(a1-6)[GlcNAc(b1-3)Gal(b1-4)GlcNAc(b1-3)Gal(b1-4)GlcNAc(b1-3)Gal(b1-4)GlcNAc(b1-3)Gal(b1-4)GlcNAc(b1-2)Man(a1-3)]Man(b1-4)GlcNAc(b1-4)[Fuc(a1-6)]GlcNAc
# Procedure, shortened: as §1
# [9] = biological target: GlcNAc(b1-3)Gal(b1-4)GlcNAc(b1-3)Gal(b1-4)GlcNAc(b1-3)GalNAc
# Procedure, shortened: as §1
# [10] = biological target: GlcNAc(b1-3)Gal(b1-4)GlcNAc(b1-3)GalNAc
# Procedure, shortened: as §1
# [11] = biological target: GlcNAc(b1-3)Gal(b1-4)GlcNAc(b1-3)[GlcNAc(b1-3)Gal(b1-4)GlcNAc(b1-3)]GalNAc
# Procedure, shortened: as §1
# [12] = biological target: GlcNAc(b1-3)Gal(b1-4)GlcNAc(b1-6)[Gal(b1-3)]GalNAc
# Procedure, shortened: as §1
# [13] = biological target: GlcNAc(b1-3)Gal(b1-4)GlcNAc(b1-6)[GlcNAc(b1-3)Gal(b1-3)]GalNAc
# Procedure, shortened: as §1
# [14] = biological target: GlcNAc(b1-3)Gal(b1-4)GlcNAc(b1-6)[GlcNAc(b1-3)]Gal(b1-4)GlcNAc
# Procedure, shortened: as §1
# [15] = biological target: GlcNAc(b1-3)GalNAc
# Procedure, shortened: as §1
# [16] = biological target: GlcNAc(b1-3)Man
# Procedure, shortened: as §1
# [17] = biological target: GlcNAc(b1-3)[GlcNAc(b1-4)][GlcNAc(b1-6)]GlcNAc
# Procedure, shortened: as §1
# [18] = biological target: GlcNAc(b1-3)[GlcNAc(b1-6)]Gal(b1-4)GlcNAc
# Procedure, shortened: as §1
# [19] = biological target: GlcNAc(b1-3)[GlcNAc(b1-6)]GalNAc
# Procedure, shortened: as §1
# [20] = biological target: GlcNAc(b1-4)Gal(b1-4)GlcNAc
# Procedure, shortened: as §1
# [21] = biological target: GlcNAc(b1-4)GlcNAc
# Procedure, shortened: as §1
# [22] = biological target: GlcNAc(b1-4)GlcNAc(b1-4)GlcNAc
# Procedure, shortened: as §1
# [23] = biological target: GlcNAc(b1-4)GlcNAc(b1-4)GlcNAc(b1-4)GlcNAc(b1-4)GlcNAc
# Procedure, shortened: as §1
# [24] = biological target: GlcNAc(b1-4)GlcNAc(b1-4)GlcNAc(b1-4)GlcNAc(b1-4)GlcNAc(b1-4)GlcNAc
# Procedure, shortened: as §1
# [25] = biological target: GlcNAc(b1-4)[GlcNAc(b1-6)]GalNAc
# Procedure, shortened: as §1
# [26] = biological target: GlcNAc(b1-6)Gal(b1-4)GlcNAc
# Procedure, shortened: as §1
# [27] = biological target: GlcNAc(b1-6)GalNAc
# Procedure, shortened: as §1
# [28] = biological target: GlcNAc6S(b1-3)Gal(b1-4)GlcNAc
# Procedure, shortened: as §1
# [29] = biological target: Kdn(a2-3)Gal(b1-3)GalNAc
# Procedure, shortened: as §1
# [30] = biological target: Kdn(a2-3)Gal(b1-3)GlcNAc
# Procedure, shortened: as §1
# [31] = biological target: Kdn(a2-3)Gal(b1-4)Glc
# Procedure, shortened: as §1
# [32] = biological target: Kdn(a2-3)Gal(b1-4)GlcNAc
# Procedure, shortened: as §1
# [33] = biological target: Kdn(a2-3)Gal(b1-4)[Fuc(a1-3)]GlcNAc
# Procedure, shortened: as §1
# [34] = biological target: Kdn(a2-6)Gal(b1-4)GlcNAc
# Procedure, shortened: as §1
# [35] = biological target: Man(a1-2)Man(a1-2)Man(a1-3)Man
# Procedure, shortened: as §1
# [36] = biological target: Man(a1-2)Man(a1-2)Man(a1-6)[Man(a1-3)]Man
# Procedure, shortened: as §1
# [37] = biological target: Man(a1-2)Man(a1-3)Man
# Procedure, shortened: as §1
# [38] = biological target: Man(a1-2)Man(a1-3)[Man(a1-2)Man(a1-6)]Man
# Procedure, shortened: as §1
binder,measurement,setting,value
B1,glycan array binding signal (z-score),[1],0.337
same,glycan array binding signal (z-score),[2],0.343
same,glycan array binding signal (z-score),[3],0.445
same,glycan array binding signal (z-score),[4],-0.047
same,glycan array binding signal (z-score),[5],0.203
same,glycan array binding signal (z-score),[6],0.632
same,glycan array binding signal (z-score),[7],0.883
same,glycan array binding signal (z-score),[8],-0.157
same,glycan array binding signal (z-score),[9],-0.403
same,glycan array binding signal (z-score),[10],-0.337
same,glycan array binding signal (z-score),[11],0.014
same,glycan array binding signal (z-score),[12],-0.635
same,glycan array binding signal (z-score),[13],0.406
same,glycan array binding signal (z-score),[14],-0.174
same,glycan array binding signal (z-score),[15],-0.32
same,glycan array binding signal (z-score),[16],0.647
same,glycan array binding signal (z-score),[17],-0.438
same,glycan array binding signal (z-score),[18],0.524
same,glycan array binding signal (z-score),[19],-0.797
same,glycan array binding signal (z-score),[20],-0.501
same,glycan array binding signal (z-score),[21],0.019
same,glycan array binding signal (z-score),[22],-0.843
same,glycan array binding signal (z-score),[23],0
same,glycan array binding signal (z-score),[24],-1.11
same,glycan array binding signal (z-score),[25],-0.12
same,glycan array binding signal (z-score),[26],-0.226
same,glycan array binding signal (z-score),[27],0.285
same,glycan array binding signal (z-score),[28],-0.708
same,glycan array binding signal (z-score),[29],-0.472
same,glycan array binding signal (z-score),[30],-0.011
same,glycan array binding signal (z-score),[31],0.612
same,glycan array binding signal (z-score),[32],-0.559
same,glycan array binding signal (z-score),[33],0.042
same,glycan array binding signal (z-score),[34],-0.157
same,glycan array binding signal (z-score),[35],-1.25
same,glycan array binding signal (z-score),[36],-0.477
same,glycan array binding signal (z-score),[37],-0.136
same,glycan array binding signal (z-score),[38],0.122

# In another format: results already given
binder	measurement	setting	value
B1	glycan array binding signal (z-score)	[1]	0.337
same	glycan array binding signal (z-score)	[3]	0.445
